Results reported in patent US20150291681A1 (published 2015).
Results are given in words; binding and its absence hold for the method and conditions named. Some entries that bind do so weakly or less than the wild type. Sequences can lack the tags named with a protein.

Protein sequences, listed by entry. Tags and fused reporters are not part of them. Residues count along the entry.
UniProt P07207, residues 53-2703: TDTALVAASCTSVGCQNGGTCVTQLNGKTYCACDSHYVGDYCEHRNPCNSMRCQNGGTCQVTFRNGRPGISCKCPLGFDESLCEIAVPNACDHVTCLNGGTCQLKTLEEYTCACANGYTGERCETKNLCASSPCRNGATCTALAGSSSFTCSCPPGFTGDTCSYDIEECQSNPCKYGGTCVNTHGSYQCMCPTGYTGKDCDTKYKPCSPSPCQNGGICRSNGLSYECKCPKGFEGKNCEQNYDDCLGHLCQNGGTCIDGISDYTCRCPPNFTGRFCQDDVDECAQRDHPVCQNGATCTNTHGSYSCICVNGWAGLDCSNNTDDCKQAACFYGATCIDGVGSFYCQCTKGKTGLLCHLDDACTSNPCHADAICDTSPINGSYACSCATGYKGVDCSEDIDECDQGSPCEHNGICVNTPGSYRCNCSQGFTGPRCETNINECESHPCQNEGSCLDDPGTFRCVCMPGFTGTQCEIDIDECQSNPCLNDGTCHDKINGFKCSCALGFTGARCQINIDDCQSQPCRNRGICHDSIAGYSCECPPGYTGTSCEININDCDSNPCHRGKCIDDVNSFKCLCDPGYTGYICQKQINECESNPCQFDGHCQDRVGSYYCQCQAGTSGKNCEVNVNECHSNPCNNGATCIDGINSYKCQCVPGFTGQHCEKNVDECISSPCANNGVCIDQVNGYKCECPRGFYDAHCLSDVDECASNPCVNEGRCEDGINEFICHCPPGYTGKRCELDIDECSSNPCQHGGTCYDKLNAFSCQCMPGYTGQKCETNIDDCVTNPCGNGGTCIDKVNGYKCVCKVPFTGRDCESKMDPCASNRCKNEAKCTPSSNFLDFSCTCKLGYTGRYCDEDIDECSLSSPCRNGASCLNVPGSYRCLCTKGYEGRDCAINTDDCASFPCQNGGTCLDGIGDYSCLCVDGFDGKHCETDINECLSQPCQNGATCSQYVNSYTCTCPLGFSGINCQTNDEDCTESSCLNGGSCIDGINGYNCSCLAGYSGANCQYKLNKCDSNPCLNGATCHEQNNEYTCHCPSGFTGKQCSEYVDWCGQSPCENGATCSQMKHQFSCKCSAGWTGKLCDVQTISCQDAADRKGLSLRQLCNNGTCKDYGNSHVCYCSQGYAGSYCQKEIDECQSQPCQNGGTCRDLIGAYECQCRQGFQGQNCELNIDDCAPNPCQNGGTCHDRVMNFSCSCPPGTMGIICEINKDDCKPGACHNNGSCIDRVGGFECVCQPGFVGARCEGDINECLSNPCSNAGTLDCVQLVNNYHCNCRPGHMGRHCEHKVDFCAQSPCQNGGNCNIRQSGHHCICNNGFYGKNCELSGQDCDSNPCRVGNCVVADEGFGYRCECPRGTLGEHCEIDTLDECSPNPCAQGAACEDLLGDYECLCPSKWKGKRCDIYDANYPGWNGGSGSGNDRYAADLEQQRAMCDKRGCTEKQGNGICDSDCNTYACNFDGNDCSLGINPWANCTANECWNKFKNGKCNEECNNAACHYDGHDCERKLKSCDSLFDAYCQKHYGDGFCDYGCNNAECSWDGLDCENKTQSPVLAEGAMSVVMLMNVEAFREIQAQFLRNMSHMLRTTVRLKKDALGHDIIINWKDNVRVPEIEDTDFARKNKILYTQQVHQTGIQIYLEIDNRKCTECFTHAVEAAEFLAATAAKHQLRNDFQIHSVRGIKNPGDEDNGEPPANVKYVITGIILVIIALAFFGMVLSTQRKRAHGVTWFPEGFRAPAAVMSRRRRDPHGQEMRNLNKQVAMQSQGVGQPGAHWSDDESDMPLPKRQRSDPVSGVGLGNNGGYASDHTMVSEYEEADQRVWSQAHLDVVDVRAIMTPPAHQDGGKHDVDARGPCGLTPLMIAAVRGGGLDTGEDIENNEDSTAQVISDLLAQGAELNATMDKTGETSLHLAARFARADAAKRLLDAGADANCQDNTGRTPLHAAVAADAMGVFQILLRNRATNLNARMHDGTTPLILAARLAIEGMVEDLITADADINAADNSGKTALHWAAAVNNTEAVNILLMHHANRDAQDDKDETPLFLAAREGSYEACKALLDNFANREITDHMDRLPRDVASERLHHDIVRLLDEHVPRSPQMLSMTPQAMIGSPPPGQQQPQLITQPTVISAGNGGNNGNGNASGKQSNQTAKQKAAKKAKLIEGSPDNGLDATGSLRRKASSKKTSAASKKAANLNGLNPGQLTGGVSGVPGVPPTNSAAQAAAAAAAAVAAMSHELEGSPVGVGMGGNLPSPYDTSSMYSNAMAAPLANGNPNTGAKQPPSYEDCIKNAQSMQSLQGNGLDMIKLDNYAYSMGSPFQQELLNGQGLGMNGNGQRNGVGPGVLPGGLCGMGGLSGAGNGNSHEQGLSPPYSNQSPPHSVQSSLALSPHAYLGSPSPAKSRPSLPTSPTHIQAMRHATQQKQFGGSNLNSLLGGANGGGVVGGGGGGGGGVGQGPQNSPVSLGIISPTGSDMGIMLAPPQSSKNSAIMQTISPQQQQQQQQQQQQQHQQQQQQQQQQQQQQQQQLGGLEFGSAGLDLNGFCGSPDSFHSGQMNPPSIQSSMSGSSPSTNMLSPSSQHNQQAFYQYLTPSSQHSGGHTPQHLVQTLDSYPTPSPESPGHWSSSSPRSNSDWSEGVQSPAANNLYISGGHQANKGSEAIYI

Key:
[1] = target: EGFP labeled Notch (Drosophila Notch stably expressed on S2 cells) (Drosophila) (UniProt P07207); assay: S2 cell aggregation; SerDel3 form transfected into Notch-EGFP cells (cis), mixed with Sertom cells
[2] = target: EGFP labeled Notch (Drosophila Notch stably expressed on S2 cells) (Drosophila) (UniProt P07207); assay: S2 cell aggregation; SerDel3tom transfected into Notch-EGFP cells (cis), competitor of Sertom cells (trans)
[3] = target: EGFP labeled Notch (Drosophila Notch stably expressed on S2 cells) (Drosophila) (UniProt P07207); assay: S2 cell aggregation, cis competition

- binding [1]: binds
- binding [2]: binds
- binding [3]: binds
B1: SerDel3tom (tomato-tagged Ser lacking ELR 3) (ligand, not shown: small tags and cut ends)
chain: GNFELEILEISNTNSHLLNGYCCGMPAELRATKTIGCSPCTTAFRLCLKEYQTTEQGASISTGCSFGNATTKILGGSSFVLSDPGVGAIVLPFTFRWTKSFTLILQALDMYNTSYPDAERLIEETSYSGVILPSPEWKTLDHIGRNARITYRVRVQCAVTYYNTTCTTFCRPRDDQFGHYACGSEGQKLCLNGWQGVNCEEAICKAGCDPVHGKCDRPGECECRPGWRGPLCNECMVYPGCKHGSCNGSAWKCVCDTNWGGILCDQDLNFCATRPCRNGGTCTLKTSNRTQAQVYRTSHGRSNMGRPVRRSSSMRSLDHLRPEGQALNGSSSSGLVSLGSLQLQQQLAPDFTCDCAAGWTGPTCEINIDECAGGPCEHGGTCIDLIGGFRCECPPEWHGDVCQVDVNECEAPHSAGIAANALLTTTATAIIGSNLSSTALLAALTSAVASTSLAIGPCINAKECRNQPGSFACICKEGWGGVTCAENLDDCVGQCRNGATCIDLVNDYRCACASGFTGRDCETDIDECATSPCRNGGECVDMVGKFNCICPLGYSGSLCEEAKENCTPSPCLEGHCLNTPEGYYCHCPPDRAGKHCEQLRPLCSQPPCNEGCFANVSLATSATTTTTTTTTATTTRKMAKPSGLPCSGHGSCEMSDVGTFCKCHVGHTGTFCEHNLNECSPNPCRNGGICLDGDGDFTCECMSGWTGKRCSERATGCYAGQCQNGGTCMPGAPDKALQPHCRCAPGWTGLFCAEAIDQCRGQPCHNGGTCESGAGWFRCVCAQGFSGPDCRINVNECSPQPCQGGATCIDGIGGYSCICPPGRHGLRCEILLSDPKSACQNASNTISPYTALNRSQNWLDIALTGRTEDDENCNACVCENGTSRCTNLWCGLPNCYKVDPLSKSSNLSGVCKQHEVCVPALSETCLSSPCNVRGDCRALEPSRRVAPPRLPAKSSCWPNQAVVNENCARLTILLALERVGKGASVEGLCSLVRVLLAAQLIKKPASTFGQDPGMLMVLCDLKTGTNDTVELTVSSSKLNDPQLPVAVGLLGELLSSRQLNGIQRRKELELQHAKLAALTSIVEVKLETARVADGSGHSLLIGVLCGVFIVLVGFSVFISLYWKQRLAYRTSSGMNLTPSLDALRHEEEKSNNLQNEENLRRYTNPLKGSTSSLRAATGMELSLNPAPELAASAASSSALHRSQPLFPPCDFERELDSSTGLKQAHKRSSQILLHKTQNSDMRKNTVGSLDSPRKDFGKRSINCKSMPPSSGDEGSDVLATTVMV
